Measurements from PMC11150407.
These are yes or no findings as the source states them, for the method shown. In cells and extracts the contact can be indirect. These calls come from enrichment with a bait or labelling near it, and not all partners need be listed. A no says only that the protein was not detected with the bait.

By UniProt entry, the sequences of proteins in these tests, tags left out. Where a name states a change or a piece, a line headed by the entry shows the natural chain unless it says otherwise.
UniProt Q03112: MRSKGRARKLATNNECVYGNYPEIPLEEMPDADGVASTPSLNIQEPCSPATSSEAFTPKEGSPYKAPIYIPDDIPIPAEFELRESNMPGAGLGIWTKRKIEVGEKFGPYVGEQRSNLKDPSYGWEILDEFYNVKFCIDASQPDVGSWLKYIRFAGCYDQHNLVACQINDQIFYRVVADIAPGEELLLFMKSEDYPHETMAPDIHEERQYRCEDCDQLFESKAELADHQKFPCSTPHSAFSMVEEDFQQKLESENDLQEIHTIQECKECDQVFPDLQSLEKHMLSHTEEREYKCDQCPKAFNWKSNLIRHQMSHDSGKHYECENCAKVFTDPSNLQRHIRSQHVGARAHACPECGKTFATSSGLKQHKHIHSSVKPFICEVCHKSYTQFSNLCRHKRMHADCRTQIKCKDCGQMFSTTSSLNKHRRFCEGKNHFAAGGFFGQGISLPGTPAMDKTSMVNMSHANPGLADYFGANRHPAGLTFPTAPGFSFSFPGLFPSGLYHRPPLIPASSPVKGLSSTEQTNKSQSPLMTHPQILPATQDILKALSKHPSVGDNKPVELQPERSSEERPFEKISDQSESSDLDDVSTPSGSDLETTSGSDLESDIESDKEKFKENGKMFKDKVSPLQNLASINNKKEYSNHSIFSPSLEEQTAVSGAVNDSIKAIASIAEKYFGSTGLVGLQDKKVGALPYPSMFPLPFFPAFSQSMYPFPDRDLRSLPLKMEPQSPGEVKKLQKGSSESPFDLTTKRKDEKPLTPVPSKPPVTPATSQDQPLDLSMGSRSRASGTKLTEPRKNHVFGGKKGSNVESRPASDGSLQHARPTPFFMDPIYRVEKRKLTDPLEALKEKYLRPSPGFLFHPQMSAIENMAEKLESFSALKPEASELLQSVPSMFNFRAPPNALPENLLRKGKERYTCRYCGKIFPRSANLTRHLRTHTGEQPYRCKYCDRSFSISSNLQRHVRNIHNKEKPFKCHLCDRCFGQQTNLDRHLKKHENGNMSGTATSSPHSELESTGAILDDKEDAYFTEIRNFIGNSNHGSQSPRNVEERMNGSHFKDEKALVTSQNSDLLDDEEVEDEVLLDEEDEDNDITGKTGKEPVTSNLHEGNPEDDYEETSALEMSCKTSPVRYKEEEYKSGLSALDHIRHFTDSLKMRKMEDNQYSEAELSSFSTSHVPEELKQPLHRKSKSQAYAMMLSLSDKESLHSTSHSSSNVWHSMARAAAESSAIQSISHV
UniProt P11940: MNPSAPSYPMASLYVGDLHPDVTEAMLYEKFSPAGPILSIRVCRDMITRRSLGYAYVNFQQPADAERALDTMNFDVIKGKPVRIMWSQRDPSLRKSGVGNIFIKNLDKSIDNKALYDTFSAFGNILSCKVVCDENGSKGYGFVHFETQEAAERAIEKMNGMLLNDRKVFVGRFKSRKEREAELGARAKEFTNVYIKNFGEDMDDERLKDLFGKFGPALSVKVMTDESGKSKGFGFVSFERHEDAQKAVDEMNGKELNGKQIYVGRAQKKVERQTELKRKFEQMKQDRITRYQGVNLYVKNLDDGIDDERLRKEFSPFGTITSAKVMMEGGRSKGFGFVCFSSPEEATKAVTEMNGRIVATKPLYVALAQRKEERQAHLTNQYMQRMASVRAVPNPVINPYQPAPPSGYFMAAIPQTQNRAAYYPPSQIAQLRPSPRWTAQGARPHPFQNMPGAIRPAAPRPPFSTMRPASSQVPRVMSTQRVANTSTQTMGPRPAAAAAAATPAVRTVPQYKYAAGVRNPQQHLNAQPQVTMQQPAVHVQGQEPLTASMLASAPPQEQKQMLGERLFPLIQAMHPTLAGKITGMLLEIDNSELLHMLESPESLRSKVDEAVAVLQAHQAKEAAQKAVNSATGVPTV
UniProt Q7Z7K6: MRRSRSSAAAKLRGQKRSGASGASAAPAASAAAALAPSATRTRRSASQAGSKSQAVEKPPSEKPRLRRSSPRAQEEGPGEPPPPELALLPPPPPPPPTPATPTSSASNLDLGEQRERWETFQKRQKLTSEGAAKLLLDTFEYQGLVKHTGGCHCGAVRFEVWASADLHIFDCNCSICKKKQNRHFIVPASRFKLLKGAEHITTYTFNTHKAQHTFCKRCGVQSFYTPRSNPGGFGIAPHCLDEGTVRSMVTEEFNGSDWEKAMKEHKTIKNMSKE
UniProt P09874: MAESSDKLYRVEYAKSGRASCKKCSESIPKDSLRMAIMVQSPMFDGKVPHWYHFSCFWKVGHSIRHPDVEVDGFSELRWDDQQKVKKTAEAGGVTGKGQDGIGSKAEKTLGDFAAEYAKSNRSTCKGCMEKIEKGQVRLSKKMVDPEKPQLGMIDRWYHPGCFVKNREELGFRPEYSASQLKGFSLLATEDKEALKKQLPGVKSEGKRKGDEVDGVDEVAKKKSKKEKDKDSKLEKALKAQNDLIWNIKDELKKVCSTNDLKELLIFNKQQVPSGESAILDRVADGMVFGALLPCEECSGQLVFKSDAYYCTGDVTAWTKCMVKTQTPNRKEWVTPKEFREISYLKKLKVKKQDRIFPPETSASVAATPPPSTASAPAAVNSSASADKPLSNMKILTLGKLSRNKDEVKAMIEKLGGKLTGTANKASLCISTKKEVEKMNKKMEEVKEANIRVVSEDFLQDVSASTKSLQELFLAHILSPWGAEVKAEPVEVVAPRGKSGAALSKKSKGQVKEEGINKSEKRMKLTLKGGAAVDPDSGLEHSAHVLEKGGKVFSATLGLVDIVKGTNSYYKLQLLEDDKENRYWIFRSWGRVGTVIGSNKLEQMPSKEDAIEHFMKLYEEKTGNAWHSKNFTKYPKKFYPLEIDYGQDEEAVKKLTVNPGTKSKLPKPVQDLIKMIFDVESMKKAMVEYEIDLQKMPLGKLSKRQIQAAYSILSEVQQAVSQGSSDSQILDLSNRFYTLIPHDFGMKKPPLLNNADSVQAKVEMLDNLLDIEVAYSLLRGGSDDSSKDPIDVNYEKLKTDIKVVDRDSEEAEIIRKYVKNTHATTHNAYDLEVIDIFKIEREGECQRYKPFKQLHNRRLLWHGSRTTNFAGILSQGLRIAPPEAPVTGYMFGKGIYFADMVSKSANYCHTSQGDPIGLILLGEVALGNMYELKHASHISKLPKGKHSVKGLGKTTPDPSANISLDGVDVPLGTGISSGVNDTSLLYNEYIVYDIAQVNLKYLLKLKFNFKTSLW
UniProt P13010: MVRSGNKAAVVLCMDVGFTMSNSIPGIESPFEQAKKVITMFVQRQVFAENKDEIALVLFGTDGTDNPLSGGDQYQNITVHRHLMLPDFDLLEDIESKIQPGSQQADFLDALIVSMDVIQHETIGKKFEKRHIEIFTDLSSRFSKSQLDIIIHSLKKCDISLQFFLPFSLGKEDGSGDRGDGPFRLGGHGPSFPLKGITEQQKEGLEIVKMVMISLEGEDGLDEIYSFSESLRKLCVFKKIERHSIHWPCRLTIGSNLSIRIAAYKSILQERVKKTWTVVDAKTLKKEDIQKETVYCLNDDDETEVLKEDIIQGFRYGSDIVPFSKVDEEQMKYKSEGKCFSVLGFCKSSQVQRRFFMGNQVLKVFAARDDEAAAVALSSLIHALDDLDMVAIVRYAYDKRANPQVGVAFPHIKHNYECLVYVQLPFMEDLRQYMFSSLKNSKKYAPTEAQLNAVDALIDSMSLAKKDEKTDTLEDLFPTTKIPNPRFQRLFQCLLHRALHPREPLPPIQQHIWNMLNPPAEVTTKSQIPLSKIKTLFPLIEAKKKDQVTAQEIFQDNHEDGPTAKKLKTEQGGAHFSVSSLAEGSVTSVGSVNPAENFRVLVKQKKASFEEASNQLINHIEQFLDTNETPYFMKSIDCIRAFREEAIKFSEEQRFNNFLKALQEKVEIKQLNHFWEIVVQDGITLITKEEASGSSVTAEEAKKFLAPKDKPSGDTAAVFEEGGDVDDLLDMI
UniProt Q7KZF4: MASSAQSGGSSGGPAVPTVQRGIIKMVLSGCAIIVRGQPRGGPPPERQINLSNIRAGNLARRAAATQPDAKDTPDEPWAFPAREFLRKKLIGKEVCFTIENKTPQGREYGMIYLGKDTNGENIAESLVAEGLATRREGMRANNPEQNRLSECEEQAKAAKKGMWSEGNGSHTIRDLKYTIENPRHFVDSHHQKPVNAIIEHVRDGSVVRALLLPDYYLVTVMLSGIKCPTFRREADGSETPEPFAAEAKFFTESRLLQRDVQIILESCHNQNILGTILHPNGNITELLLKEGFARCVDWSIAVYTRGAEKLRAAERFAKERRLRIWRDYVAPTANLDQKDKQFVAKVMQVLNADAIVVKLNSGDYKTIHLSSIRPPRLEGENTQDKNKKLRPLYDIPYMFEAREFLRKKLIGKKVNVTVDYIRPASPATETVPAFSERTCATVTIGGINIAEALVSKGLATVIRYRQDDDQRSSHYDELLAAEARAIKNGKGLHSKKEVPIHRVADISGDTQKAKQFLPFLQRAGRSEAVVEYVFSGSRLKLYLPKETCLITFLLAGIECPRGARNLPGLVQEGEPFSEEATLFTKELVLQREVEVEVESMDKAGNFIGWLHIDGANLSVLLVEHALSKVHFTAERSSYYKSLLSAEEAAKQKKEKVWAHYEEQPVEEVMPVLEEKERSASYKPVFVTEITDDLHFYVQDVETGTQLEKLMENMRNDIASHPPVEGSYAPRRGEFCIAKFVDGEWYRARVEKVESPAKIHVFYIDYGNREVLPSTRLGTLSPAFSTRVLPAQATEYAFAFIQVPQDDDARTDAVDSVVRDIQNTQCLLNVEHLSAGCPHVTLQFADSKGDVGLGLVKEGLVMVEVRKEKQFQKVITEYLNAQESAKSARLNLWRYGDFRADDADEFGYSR
UniProt P01106: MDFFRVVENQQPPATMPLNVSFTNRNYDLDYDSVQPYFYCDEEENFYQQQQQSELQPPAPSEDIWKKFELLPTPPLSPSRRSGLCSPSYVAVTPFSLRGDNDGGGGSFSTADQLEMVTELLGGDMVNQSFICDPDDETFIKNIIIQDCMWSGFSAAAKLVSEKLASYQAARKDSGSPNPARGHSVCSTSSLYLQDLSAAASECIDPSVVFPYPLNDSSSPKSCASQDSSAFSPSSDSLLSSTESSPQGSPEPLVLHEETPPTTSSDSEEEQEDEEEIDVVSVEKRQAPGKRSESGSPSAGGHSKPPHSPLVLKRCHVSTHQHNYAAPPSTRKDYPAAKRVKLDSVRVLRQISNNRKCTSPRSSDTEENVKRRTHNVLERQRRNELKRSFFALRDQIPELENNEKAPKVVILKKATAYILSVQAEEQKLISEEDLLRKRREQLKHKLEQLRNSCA
UniProt Q9NR30: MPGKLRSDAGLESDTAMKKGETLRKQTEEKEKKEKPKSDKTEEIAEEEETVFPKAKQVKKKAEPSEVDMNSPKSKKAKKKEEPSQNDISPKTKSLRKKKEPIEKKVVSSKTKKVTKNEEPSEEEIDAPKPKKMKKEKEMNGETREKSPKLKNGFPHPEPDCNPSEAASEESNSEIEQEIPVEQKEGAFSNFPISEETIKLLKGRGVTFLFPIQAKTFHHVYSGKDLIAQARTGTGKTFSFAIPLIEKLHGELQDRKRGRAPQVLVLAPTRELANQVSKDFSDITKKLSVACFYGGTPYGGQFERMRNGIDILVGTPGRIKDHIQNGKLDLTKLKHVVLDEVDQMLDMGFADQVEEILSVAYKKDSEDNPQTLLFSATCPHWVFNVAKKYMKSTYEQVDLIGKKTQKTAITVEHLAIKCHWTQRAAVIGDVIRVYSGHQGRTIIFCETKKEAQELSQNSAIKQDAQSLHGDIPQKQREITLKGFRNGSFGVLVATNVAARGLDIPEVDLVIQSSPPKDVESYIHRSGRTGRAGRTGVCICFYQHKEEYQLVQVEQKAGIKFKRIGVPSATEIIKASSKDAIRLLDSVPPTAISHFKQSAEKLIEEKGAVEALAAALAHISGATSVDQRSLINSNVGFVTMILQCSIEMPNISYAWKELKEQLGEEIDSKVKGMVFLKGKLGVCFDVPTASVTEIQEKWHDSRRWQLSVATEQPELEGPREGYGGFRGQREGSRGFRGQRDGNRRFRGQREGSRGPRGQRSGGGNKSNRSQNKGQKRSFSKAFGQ

B1: ESYT1 (protein, UniProt Q9BSJ8 1-1104)
chain: MERSPGEGPSPSPMDQPSAPSDPTDQPPAAHAKPDPGSGGQPAGPGAAGEALAVLTSFGRRLLVLIPVYLAGAVGLSVGFVLFGLALYLGWRRVRDEKERSLRAARQLLDDEEQLTAKTLYMSHRELPAWVSFPDVEKAEWLNKIVAQVWPFLGQYMEKLLAETVAPAVRGSNPHLQTFTFTRVELGEKPLRIIGVKVHPGQRKEQILLDLNISYVGDVQIDVEVKKYFCKAGVKGMQLHGVLRVILEPLIGDLPFVGAVSMFFIRRPTLDINWTGMTNLLDIPGLSSLSDTMIMDSIAAFLVLPNRLLVPLVPDLQDVAQLRSPLPRGIIRIHLLAARGLSSKDKYVKGLIEGKSDPYALVRLGTQTFCSRVIDEELNPQWGETYEVMVHEVPGQEIEVEVFDKDPDKDDFLGRMKLDVGKVLQASVLDDWFPLQGGQGQVHLRLEWLSLLSDAEKLEQVLQWNWGVSSRPDPPSAAILVVYLDRAQDLPLKKGNKEPNPMVQLSIQDVTQESKAVYSTNCPVWEEAFRFFLQDPQSQELDVQVKDDSRALTLGALTLPLARLLTAPELILDQWFQLSSSGPNSRLYMKLVMRILYLDSSEICFPTVPGCPGAWDVDSENPQRGSSVDAPPRPCHTTPDSQFGTEHVLRIHVLEAQDLIAKDRFLGGLVKGKSDPYVKLKLAGRSFRSHVVREDLNPRWNEVFEVIVTSVPGQELEVEVFDKDLDKDDFLGRCKVRLTTVLNSGFLDEWLTLEDVPSGRLHLRLERLTPRPTAAELEEVLQVNSLIQTQKSAELAAALLSIYMERAEDLPLRKGTKHLSPYATLTVGDSSHKTKTISQTSAPVWDESASFLIRKPHTESLELQVRGEGTGVLGSLSLPLSELLVADQLCLDRWFTLSSGQGQVLLRAQLGILVSQHSGVEAHSHSYSHSSSSLSEEPELSGGPPHITSSAPELRQRLTHVDSPLEAPAGPLGQVKLTLWYYSEERKLVSIVHGCRSLRQNGRDPPDPYVSLLLLPDKNRGTKRRTSQKKRTLSPEFNERFEWELPLDEAQRRKLDVSVKSNSSFMSRERELLGKVQLDLAETDLSQGVARWYDLMDNKDKGSS
B2: RPN1 (protein, UniProt P04843 24-607)
chain: ASSEAPPLINEDVKRTVDLSSHLAKVTAEVVLAHLGGGSTSRATSFLLALEPELEARLAHLGVQVKGEDEEENNLEVRETKIKGKSGRFFTVKLPVALDPGAKISVIVETVYTHVLHPYPTQITQSEKQFVVFEGNHYFYSPYPTKTQTMRVKLASRNVESYTKLGNPTRSEDLLDYGPFRDVPAYSQDTFKVHYENNSPFLTITSMTRVIEVSHWGNIAVEENVDLKHTGAVLKGPFSRYDYQRQPDSGISSIRSFKTILPAAAQDVYYRDEIGNVSTSHLLILDDSVEMEIRPRFPLFGGWKTHYIVGYNLPSYEYLYNLGDQYALKMRFVDHVFDEQVIDSLTVKIILPEGAKNIEIDSPYEISRAPDELHYTYLDTFGRPVIVAYKKNLVEQHIQDIVVHYTFNKVLMLQEPLLVVAAFYILFFTVIIYVRLDFSITKDPAAEARMKVACITEQVLTLVNKRIGLYRHFDETVNRYKQSRDISTLNSGKKSLETEHKALTSEIALLQSRLKTEGSDLCDRVSEMQKLDAQVKELVLKSAVEAERLVAGKLKKDTYIENEKLISGKRQELVTKIDHILDAL
B3: Fibrillarin (protein, UniProt P22087 1-321)
chain: MKPGFSPRGGGFGGRGGFGDRGGRGGRGGFGGGRGRGGGFRGRGRGGGGGGGGGGGGGRGGGGFHSGGNRGRGRGGKRGNQSGKNVMVEPHRHEGVFICRGKEDALVTKNLVPGESVYGEKRVSISEGDDKIEYRAWNPFRSKLAAAILGGVDQIHIKPGAKVLYLGAASGTTVSHVSDIVGPDGLVYAVEFSHRSGRDLINLAKKRTNIIPVIEDARHPHKYRMLIAMVDVIFADVAQPDQTRIVALNAHTFLRNGGHFVISIKANCIDSTASAEAVFASEVKKMQQENMKPQEQLTLEPYERDHAVVVGVYRPPPKVKN
B4: proliferation-associated 2G4 (PA2G4) protein (protein, UniProt Q9UQ80 1-394)
chain: MSGEDEQQEQTIAEDLVVTKYKMGGDIANRVLRSLVEASSSGVSVLSLCEKGDAMIMEETGKIFKKEKEMKKGIAFPTSISVNNCVCHFSPLKSDQDYILKEGDLVKIDLGVHVDGFIANVAHTFVVDVAQGTQVTGRKADVIKAAHLCAEAALRLVKPGNQNTQVTEAWNKVAHSFNCTPIEGMLSHQLKQHVIDGEKTIIQNPTDQQKKDHEKAEFEVHEVYAVDVLVSSGEGKAKDAGQRTTIYKRDPSKQYGLKMKTSRAFFSEVERRFDAMPFTLRAFEDEKKARMGVVECAKHELLQPFNVLYEKEGEFVAQFKFTVLLMPNGPMRITSGPFEPDLYKSEMEVQDAELKALLQSSASRKTQKKKKKKASKTAENATSGETLEENEAGD
B5: MTDH (protein, UniProt Q86UE4 1-582)
chain: MAARSWQDELAQQAEEGSARLREMLSVGLGFLRTELGLDLGLEPKRYPGWVILVGTGALGLLLLFLLGYGWAAACAGARKKRRSPPRKREEAAAVPAAAPDDLALLKNLRSEEQKKKNRKKLSEKPKPNGRTVEVAEGEAVRTPQSVTAKQPPEIDKKNEKSKKNKKKSKSDAKAVQNSSRHDGKEVDEGAWETKISHREKRQQRKRDKVLTDSGSLDSTIPGIENTITVTTEQLTTASFPVGSKKNKGDSHLNVQVSNFKSGKGDSTLQVSSGLNENLTVNGGGWNEKSVKLSSQISAGEEKWNSVSPASAGKRKTEPSAWSQDTGDANTNGKDWGRSWSDRSIFSGIGSTAEPVSQSTTSDYQWDVSRNQPYIDDEWSGLNGLSSADPNSDWNAPAEEWGNWVDEERASLLKSQEPIPDDQKVSDDDKEKGEGALPTGKSKKKKKKKKKQGEDNSTAQDTEELEKEIREDLPVNTSKTRPKQEKAFSLKTISTSDPAEVLVKNSQPIKTLPPATSTEPSVILSKSDSDKSSSQVPPILQETDKSKSNTKQNSVPPSQTKSETSWESPKQIKKKKKARRET

target: ecotropic viral integration site-1 (EVI1/MECOM) (human (endogenous in HNT34, UCSD/AML1 and PDLX_PR#003 cells)) (UniProt Q03112); assay: affinity purification with mass spectrometry; RIME: chromatin of HNT34, UCSD/AML1 and PDLX_PR#003 cells fixed with 1% formaldehyde for 8 min, sonicated; 150 ug chromatin immunoprecipitated with 15 ug anti-EVI1 (Cell Signaling #2593) on protein G magnetic beads; on-bead trypsin, LC-MS/MS; hits against IgG control, spectral count of five and above

| Molecule | binding |
| --- | --- |
| PABPC1 (from UniProt P11940 1-636) | binds |
| CENPV (from UniProt Q7Z7K6 1-275) | binds |
| PARP1 (from UniProt P09874 1-1014) | binds |
| XRCC5 (from UniProt P13010 1-732) | binds |
| SND1 (from UniProt Q7KZF4 1-910) | binds |
| MYC (from UniProt P01106 1-454) | no binding |
| nucleolar RNA helicase 2 (from UniProt Q9NR30 1-783) | binds |
| B1 | binds |
| B2 | binds |
| B3 | binds |
| B4 | binds |
| B5 | binds |
